1 molecule from patent publication US6861508 (INSTITUT NATIONAL DE LA SANTE ET DE LA RECHERCHE MEDICALE, dated 2005) can be followed below.

The target in the test is T1, (His)6-TIF2.1, E. coli-expressed purified recombinant TIF2.1 (human, UniProt Q15596 624-1287).
T1 construct: also called His-tagged TIF2.1; purified TIF2.1 protein; not shown: (His)6 tag of pET15b
T1 sequence: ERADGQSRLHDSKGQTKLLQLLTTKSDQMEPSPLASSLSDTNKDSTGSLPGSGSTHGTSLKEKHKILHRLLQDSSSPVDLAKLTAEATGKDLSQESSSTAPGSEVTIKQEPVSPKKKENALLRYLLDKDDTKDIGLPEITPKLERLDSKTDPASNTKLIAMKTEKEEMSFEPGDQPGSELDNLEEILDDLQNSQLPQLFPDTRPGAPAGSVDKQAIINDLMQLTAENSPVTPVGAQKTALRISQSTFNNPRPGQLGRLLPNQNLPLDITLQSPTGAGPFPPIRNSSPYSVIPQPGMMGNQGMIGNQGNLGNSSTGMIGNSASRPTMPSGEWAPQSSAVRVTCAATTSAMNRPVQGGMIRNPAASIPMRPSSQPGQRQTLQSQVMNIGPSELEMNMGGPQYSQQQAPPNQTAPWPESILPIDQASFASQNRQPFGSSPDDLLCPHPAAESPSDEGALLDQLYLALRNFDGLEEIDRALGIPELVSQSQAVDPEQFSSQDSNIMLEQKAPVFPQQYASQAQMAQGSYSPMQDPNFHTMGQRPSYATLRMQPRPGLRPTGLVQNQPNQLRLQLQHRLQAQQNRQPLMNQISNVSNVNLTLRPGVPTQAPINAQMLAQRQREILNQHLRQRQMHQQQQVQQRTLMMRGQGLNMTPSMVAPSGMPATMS
Kind of test: GST interaction assay (not shown).

B1: GST-hTAFII28 (printed hTAFn28) (other, human, UniProt Q15544 1-211, looked up)
chain: MDDAHESPSDKGGETGESDETAAVPGDPGATDTDGIPEETDGDADVDLKEAAAEEGELESQDVSDLTTVEREDSSLLNPAAKKLKIDTKEKKEKKQKVDEDEIQKMQILVSSFSEEQLNRYEMYRRSAFPKAAIKRLIQSITGTSVSQNVVIAMSGISKVFVGEVVEEALDVCEKWGEMPPLQPKHMREAVRRLKSKGQIPNSKHKKIIFF
notes: not shown: glutathione-S-transferase (GST)
Consider B1, for which the binding result is on record as “no binding”.
